Test results as given in PMC6030159 (Scientific Reports, 2018).
No constants are given. Whether binding was seen depends on the method and setting. Binding seen in cells or lysates may run through a third protein. Some entries that bind do so weakly or less than the wild type.

Amino acid sequences for entries named in this document (tags omitted).
UniProt P05412: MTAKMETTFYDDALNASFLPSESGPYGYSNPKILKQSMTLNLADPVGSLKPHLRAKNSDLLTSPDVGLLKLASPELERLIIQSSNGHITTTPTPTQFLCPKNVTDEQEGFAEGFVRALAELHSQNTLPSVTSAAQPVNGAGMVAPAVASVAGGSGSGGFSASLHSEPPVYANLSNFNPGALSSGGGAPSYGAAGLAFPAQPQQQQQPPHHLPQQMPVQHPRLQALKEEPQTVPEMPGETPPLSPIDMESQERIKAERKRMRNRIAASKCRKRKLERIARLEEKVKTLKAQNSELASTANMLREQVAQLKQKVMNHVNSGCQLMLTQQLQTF

Molecular target: endogenous JUN (human (endogenous in breast cancer cells)) (UniProt P05412)
Test: proximity ligation; in situ PLA (Duolink) on methanol-fixed cultured cells with pairs of primary antibodies; cells treated with 1-10 uM compounds or DMSO for 16 hours

binding: binds
B1: endogenous FRA1 (protein, UniProt P15407 1-271)
chain: MFRDFGEPGPSSGNGGGYGGPAQPPAAAQAAQQKFHLVPSINTMSGSQELQWMVQPHFLGPSSYPRPLTYPQYSPPQPRPGVIRALGPPPGVRRRPCEQISPEEEERRRVRRERNKLAAAKCRNRRKELTDFLQAETDKLEDEKSGLQREIEELQKQKERLELVLEAHRPICKIPEGAKEGDTGSTSGTSSPPAPCRPVPCISLSPGPVLEPEALHTPTLMTTPSLTPFTPSLVFTYPSTPEPCASAHRKSSSSSGDPSSDPLGSPTLLAL
